Test results: US9282738B2, “Antimicrobial compositions and methods of use thereof” (WISCONSIN ALUMNI RESEARCH FOUNDATION, priority 2011, dated 2016)

Tested on: E. coli ΔtolC
Test: Cephalexin-induced cell lysis and filamentation (optical density)
Assay type: cell-based, Escherichia coli
Conditions: 10 μg/mL cephalexin alone, FIG. 9B

In the case of `CC1=C(C(=O)O)N2C(=O)[C@@H](NC(=O)[C@H](N)c3ccccc3)[C@H]2SC1` [cephalexin, reference compound], the “cell filamentation and lysis (optical density)” value is reported as “cells became filamented and underwent lysis”.
